Test results: PMC11560026
These are yes or no findings as the source states them, for the method shown. Binding seen in cells or lysates may run through a third protein. Some binding calls cover weakened binding; strength is not graded here. For some assays here: Where a sequence is shown, tags or fusion partners need not be part of it.

Protein sequences, listed by entry. Tags and fused reporters are not part of them.
UniProt Q96B97: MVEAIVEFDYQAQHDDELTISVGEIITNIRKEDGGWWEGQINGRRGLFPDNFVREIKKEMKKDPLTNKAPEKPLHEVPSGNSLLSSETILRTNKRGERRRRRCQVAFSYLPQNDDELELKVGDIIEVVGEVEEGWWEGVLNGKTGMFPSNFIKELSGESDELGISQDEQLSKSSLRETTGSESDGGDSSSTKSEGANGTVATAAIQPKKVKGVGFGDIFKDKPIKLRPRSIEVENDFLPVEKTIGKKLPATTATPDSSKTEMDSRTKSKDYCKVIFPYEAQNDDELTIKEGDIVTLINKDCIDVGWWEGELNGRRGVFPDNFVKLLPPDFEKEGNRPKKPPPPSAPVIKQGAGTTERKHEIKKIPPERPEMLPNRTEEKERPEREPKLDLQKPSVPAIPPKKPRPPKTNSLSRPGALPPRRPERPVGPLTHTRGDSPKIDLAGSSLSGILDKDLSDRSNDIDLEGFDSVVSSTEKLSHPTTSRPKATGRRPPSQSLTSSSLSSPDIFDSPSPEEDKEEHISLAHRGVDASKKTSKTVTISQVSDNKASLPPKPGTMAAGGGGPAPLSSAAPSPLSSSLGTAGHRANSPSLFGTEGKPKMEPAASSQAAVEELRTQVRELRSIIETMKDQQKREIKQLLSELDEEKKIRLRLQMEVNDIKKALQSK
UniProt Q14258: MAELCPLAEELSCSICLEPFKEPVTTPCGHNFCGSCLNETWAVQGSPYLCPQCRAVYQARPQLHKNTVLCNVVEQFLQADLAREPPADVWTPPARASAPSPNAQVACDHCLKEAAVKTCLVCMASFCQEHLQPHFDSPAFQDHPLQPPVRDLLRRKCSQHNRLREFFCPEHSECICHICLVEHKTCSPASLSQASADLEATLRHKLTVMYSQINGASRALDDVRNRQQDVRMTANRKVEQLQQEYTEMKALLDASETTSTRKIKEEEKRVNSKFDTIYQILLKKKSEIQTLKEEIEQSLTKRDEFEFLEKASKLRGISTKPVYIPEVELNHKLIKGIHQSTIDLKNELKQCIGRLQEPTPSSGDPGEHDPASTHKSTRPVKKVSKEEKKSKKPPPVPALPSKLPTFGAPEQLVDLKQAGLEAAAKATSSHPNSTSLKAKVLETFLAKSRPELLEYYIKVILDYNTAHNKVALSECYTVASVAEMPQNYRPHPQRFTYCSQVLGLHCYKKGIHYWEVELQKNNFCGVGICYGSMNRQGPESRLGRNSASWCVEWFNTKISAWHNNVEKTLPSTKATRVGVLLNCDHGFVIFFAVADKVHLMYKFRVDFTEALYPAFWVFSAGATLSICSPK

Tests used:
[1] = biological target: SH3 domain-containing kinase-binding protein 1 (SH3KBP1), endogenous in HEK-293T (human (endogenous in HEK-293T)) (UniProt Q96B97); experiment: co-IP; HEK-293T transfected with one tagged protein, the partner endogenous; Western blot; Fig 9D cells treated with DMSO or Baf-A1 for 12 h before harvest
[2] = biological target: T1, Flag-tagged RIG-I (UniProt O95786); experiment: as above
T1 sequence: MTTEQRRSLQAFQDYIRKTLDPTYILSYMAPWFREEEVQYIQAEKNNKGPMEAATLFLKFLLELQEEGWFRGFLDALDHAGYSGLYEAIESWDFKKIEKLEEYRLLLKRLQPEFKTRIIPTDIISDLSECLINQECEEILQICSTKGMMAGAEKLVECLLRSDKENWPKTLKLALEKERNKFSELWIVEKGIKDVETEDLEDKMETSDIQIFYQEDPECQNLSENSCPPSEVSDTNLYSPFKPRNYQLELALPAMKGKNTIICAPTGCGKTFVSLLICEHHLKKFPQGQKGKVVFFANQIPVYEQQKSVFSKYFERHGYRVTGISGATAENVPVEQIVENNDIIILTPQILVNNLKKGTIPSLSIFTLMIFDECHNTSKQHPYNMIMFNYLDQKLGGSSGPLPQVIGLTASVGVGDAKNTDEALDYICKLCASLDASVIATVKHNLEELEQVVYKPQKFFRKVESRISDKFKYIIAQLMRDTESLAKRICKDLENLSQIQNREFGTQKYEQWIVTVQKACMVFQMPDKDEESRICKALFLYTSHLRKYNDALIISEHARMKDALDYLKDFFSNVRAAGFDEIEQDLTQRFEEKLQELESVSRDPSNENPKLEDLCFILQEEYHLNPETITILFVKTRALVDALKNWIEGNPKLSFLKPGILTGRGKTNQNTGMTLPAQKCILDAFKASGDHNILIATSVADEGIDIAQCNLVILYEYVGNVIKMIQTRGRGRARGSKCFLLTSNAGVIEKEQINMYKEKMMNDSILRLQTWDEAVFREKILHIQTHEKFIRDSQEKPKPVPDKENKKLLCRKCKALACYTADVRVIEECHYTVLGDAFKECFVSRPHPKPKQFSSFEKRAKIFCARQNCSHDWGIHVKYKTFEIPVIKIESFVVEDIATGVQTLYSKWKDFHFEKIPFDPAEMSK

Substance	binding [1]	binding [2]
HA-tagged TRIM25, full length (from UniProt Q14258 1-630)	binds	
SH3 domain-containing kinase-binding protein 1 (SH3KBP1), endogenous in HEK-293T (from UniProt Q96B97 1-665)		no binding
